# Test results reported in PubChem BioAssay AID504847 (National Center for Advancing Translational Sciences (NCATS), 2011).
# Chains of the proteins cited; added tags and fusions are not shown. Lines headed by an entry give the natural chain unless they say otherwise; changes in a name come on top.
# UniProt P11473: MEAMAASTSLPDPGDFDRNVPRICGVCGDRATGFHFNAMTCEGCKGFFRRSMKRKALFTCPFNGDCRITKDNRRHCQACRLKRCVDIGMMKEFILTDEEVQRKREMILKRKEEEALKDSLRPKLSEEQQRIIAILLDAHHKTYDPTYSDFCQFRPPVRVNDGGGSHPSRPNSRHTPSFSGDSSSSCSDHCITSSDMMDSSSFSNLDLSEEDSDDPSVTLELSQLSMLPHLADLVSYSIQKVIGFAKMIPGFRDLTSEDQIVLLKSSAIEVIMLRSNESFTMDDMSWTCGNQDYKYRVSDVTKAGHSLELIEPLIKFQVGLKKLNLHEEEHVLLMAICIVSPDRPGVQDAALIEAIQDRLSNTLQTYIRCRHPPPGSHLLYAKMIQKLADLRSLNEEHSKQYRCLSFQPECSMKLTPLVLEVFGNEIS
# Out of some 400,000 compounds screened, about 3,700 (0.93%) were called active. Inconclusive means that the source gave no clear call. Such entries were picked first, then a sample of the others. Calls come from the whole dose curve; as a rule, active = well fitted inhibition curve with a large enough effect; inconclusive = small, poorly fitted or top-dose-only effect, or another doubt; inactive = no such curve, though single readings can be large or run the other way. Potencies beside an inconclusive call are fits to weak or partial responses and may not hold up.
# Target: Vitamin D3 receptor (Homo sapiens) (UniProt P11473)
# Experiment: Inhibitors of the vitamin D receptor (VDR): qHTS
# Conditions: VDR-SRC2-3 peptide fluorescence polarization, 2 h; max response, negative = inhibition: active compounds read low
# In short: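 The screen uses fluorescence polarization to detect compounds that interfere with recruitment of the SRC2-3 coactivator peptide to VDR; plates are read after 2 h at room temperature.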
# % is set by controls: 0 for no effect and ±100 for the full control effect; potency is the fitted concentration of half-maximal effect.
Structure (SMILES),Potency,"max response, negative = inhibition"
Cc1ccc(Cn2nc(C)c(C(=O)NCC(c3ccc(F)cc3)N3CCOCC3)c2Cl)cc1 (stereo unspecified),"inconclusive: 63.1 µM [inhibitor, partial curve, poor fit]",
CCn1ccnc1CN(C)C(=O)c1cc(COc2ccccc2SC)on1,,inactive: 6.72%
O=C(c1cc(Cl)ccc1Cl)N1CCc2ccccc21,"inconclusive: 17.8 µM [inhibitor, partial curve, poor fit]",
COC(=O)c1c(-c2ccc(C)cc2)csc1NC(=S)NC(=O)c1ccc(F)cc1,,inactive: -11.4%
N#C/C(=C/c1ccc(N2CCCCCC2)o1)c1ccc(Cl)cc1,active: 22.4 µM,
CC1=[N+](C)c2ccc3ccccc3c2C1(C)C,active: 44.7 µM,
CCCNC(=O)Cn1c2ccccc2c2nc(=O)cc(C)n21,"inconclusive: 100 µM [inhibitor, partial curve, poor fit]",
O=C(O)CSc1nc2ccccc2[nH]1,"inconclusive: 25.1 µM [inhibitor, single point]",
Cc1cccc(C)c1Nc1oc(-c2ccccc2)nc1-c1cccc2ccccc12,,inactive: 0.0048%
COc1cccc2sc(N)nc12,,inactive: 7.65%
O=C(Nc1cnn(Cc2c(Cl)cccc2Cl)c1)c1ccc([N+](=O)[O-])cc1,,inactive: 11.3%
Cc1cc(C)c(C(CC(=O)c2cccs2)C(C#N)C#N)c(C)c1 (stereo unspecified),"inconclusive: 22.4 µM [inhibitor, full curve]",
Clc1ncccc1-c1nnn(-c2ccccc2Br)n1,"inconclusive: 2.51 µM [inhibitor, full curve, poor fit]",
CCCCNC(=O)c1ccc2nc(-c3ccco3)c(-c3ccco3)nc2c1,active: 79.4 µM,
COc1ccc(Cl)cc1NS(=O)(=O)c1ccc(S(=O)(=O)N2CCCC2)cc1,,inactive: 6.45%
CCOC(=O)/C(=C\c1ccc([N+](=O)[O-])cc1)C(=O)c1cc(C(C)=O)c(Nc2ccccc2)s1,"inconclusive: 44.7 µM [inhibitor, partial curve, poor fit]",
Nc1sc2c(c1C(=O)NCCc1ccccc1)CCC2,"inconclusive: 89.1 µM [inhibitor, single point]",
Cc1ccc(NC(=O)CSc2n[nH]c(-c3ccc(F)cc3)n2)cc1F,"inconclusive: 39.8 µM [inhibitor, single point]",
CC(C)(C)C(=O)Nc1ccc2c(c1)C(=O)C(=O)c1ccccc1-2,active: 8.91 µM,
COc1ccc(NC(=O)c2ccccn2)cc1,,inactive: 7.28%
N#C/C(=C\c1cccc(Br)c1)C(=O)N1CCCCC1,active: 50.1 µM,

# Retrieved by structure from above:
Structure (SMILES),Potency,"max response, negative = inhibition"
Cc1cc(C)c(C(CC(=O)c2cccs2)C(C#N)C#N)c(C)c1 (stereo unspecified),"inconclusive: 22.4 µM [inhibitor, full curve]",
CC1=[N+](C)c2ccc3ccccc3c2C1(C)C,active: 44.7 µM,
